Data on two compounds can be found in patent US20070129402A1, “Sustained release formulations” (Eisai Research Institute, priority 2004, published 2007).

The conditions of data set [1]: steady state, cited from earlier work.
The conditions of data set [2]: single oral dose of 5 mg, cited from earlier work.
A short description of the next data set: physchem. The conditions noted are these: 25 °C, pH 3, aqueous buffer.

Counter-ions that a name gives are not always drawn. Like-named read-outs stand apart in the source and are kept apart here. A value given as a limit tells only on which side of the number the result lay.

A word on the Cmax: it is the peak of the concentration-time curve. For `COc1cc2c(cc1OC)C(=O)C(CC1CCN(Cc3ccccc3)CC1)C2` (stereo not drawn) [Donepezil, 1-benzyl-4-((5,6-dimethoxy-1-indanon)-2-yl)methylpiperidine], the “AUC(0-24)” value in data set [1] (5 mg) was 634.8 ± 92.2 ng·h/mL; in data set [1] (10 mg) it was 1127.8 ± 195.9 ng·h/mL. The maximum concentration (Cmax) in data set [1] (5 mg) is 34.1 ± 7.3 ng/mL; in data set [1] (10 mg), 60.5 ± 10.0 ng/mL.
Usually solubility stands for the dissolved amount per volume that the medium holds. Read a low solubility as a poorly soluble substance. On to `COc1cc2c(cc1OC)C(=O)C(CC1CCN(Cc3ccccc3)CC1)C2` (stereo not drawn) [donepezil hydrochloride, 1-benzyl-4-((5,6-dimethoxy-1-indanon)-2-yl)methylpiperidine hydrochloride], for which the solubility (pH 6) lay within 11 to 16 mg/mL, the solubility (pH 8) is no more than 0.1 mg/mL and the solubility in the data set “physchem” is 11 to 16 mg/mL. In addition, the tmax in data set [2] (first volunteer) is 4 h; in data set [2] (second volunteer) it was 2 h.
